These are yes or no findings as the source states them, for the method shown. Binding seen in cells or lysates may run through a third protein. Here binding means that the protein was enriched with, or labelled near, the bait; the list need not be complete. Tags and fused reporters may be left off the sequences shown.

By UniProt entry, the sequences of proteins in these tests, tags left out.
UniProt Q9JHG7: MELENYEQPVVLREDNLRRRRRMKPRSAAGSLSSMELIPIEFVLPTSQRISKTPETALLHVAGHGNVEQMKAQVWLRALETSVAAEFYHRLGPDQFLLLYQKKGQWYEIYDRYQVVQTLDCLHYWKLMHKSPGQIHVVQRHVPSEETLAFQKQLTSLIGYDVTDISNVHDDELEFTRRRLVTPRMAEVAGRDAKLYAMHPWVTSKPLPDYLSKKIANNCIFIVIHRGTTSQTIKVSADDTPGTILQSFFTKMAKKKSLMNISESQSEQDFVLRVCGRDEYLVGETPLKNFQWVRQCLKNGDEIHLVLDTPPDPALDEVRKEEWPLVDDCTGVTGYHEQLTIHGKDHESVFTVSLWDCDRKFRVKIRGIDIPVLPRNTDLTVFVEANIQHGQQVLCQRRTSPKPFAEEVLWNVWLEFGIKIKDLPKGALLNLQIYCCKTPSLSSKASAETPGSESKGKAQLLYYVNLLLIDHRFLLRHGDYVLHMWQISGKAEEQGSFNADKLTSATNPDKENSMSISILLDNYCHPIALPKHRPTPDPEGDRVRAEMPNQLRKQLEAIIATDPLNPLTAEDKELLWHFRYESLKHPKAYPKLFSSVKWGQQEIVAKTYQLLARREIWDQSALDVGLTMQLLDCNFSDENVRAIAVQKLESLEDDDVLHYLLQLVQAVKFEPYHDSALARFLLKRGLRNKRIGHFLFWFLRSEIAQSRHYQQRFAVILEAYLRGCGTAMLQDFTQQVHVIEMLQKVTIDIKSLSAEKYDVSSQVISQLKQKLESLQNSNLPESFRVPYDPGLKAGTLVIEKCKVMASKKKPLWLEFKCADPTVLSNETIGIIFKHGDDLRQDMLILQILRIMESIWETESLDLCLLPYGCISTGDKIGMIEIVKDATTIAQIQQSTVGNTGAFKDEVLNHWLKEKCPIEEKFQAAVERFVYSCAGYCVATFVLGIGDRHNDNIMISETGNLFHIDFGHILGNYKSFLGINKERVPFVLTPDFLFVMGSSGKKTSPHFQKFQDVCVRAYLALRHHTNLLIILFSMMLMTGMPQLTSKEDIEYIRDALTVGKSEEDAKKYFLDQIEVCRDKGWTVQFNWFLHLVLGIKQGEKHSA
UniProt P49817: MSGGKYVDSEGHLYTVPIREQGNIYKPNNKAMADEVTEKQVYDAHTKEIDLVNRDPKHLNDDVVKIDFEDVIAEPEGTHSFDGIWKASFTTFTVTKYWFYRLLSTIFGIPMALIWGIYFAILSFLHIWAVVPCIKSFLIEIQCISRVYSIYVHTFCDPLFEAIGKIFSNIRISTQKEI
UniProt P11531: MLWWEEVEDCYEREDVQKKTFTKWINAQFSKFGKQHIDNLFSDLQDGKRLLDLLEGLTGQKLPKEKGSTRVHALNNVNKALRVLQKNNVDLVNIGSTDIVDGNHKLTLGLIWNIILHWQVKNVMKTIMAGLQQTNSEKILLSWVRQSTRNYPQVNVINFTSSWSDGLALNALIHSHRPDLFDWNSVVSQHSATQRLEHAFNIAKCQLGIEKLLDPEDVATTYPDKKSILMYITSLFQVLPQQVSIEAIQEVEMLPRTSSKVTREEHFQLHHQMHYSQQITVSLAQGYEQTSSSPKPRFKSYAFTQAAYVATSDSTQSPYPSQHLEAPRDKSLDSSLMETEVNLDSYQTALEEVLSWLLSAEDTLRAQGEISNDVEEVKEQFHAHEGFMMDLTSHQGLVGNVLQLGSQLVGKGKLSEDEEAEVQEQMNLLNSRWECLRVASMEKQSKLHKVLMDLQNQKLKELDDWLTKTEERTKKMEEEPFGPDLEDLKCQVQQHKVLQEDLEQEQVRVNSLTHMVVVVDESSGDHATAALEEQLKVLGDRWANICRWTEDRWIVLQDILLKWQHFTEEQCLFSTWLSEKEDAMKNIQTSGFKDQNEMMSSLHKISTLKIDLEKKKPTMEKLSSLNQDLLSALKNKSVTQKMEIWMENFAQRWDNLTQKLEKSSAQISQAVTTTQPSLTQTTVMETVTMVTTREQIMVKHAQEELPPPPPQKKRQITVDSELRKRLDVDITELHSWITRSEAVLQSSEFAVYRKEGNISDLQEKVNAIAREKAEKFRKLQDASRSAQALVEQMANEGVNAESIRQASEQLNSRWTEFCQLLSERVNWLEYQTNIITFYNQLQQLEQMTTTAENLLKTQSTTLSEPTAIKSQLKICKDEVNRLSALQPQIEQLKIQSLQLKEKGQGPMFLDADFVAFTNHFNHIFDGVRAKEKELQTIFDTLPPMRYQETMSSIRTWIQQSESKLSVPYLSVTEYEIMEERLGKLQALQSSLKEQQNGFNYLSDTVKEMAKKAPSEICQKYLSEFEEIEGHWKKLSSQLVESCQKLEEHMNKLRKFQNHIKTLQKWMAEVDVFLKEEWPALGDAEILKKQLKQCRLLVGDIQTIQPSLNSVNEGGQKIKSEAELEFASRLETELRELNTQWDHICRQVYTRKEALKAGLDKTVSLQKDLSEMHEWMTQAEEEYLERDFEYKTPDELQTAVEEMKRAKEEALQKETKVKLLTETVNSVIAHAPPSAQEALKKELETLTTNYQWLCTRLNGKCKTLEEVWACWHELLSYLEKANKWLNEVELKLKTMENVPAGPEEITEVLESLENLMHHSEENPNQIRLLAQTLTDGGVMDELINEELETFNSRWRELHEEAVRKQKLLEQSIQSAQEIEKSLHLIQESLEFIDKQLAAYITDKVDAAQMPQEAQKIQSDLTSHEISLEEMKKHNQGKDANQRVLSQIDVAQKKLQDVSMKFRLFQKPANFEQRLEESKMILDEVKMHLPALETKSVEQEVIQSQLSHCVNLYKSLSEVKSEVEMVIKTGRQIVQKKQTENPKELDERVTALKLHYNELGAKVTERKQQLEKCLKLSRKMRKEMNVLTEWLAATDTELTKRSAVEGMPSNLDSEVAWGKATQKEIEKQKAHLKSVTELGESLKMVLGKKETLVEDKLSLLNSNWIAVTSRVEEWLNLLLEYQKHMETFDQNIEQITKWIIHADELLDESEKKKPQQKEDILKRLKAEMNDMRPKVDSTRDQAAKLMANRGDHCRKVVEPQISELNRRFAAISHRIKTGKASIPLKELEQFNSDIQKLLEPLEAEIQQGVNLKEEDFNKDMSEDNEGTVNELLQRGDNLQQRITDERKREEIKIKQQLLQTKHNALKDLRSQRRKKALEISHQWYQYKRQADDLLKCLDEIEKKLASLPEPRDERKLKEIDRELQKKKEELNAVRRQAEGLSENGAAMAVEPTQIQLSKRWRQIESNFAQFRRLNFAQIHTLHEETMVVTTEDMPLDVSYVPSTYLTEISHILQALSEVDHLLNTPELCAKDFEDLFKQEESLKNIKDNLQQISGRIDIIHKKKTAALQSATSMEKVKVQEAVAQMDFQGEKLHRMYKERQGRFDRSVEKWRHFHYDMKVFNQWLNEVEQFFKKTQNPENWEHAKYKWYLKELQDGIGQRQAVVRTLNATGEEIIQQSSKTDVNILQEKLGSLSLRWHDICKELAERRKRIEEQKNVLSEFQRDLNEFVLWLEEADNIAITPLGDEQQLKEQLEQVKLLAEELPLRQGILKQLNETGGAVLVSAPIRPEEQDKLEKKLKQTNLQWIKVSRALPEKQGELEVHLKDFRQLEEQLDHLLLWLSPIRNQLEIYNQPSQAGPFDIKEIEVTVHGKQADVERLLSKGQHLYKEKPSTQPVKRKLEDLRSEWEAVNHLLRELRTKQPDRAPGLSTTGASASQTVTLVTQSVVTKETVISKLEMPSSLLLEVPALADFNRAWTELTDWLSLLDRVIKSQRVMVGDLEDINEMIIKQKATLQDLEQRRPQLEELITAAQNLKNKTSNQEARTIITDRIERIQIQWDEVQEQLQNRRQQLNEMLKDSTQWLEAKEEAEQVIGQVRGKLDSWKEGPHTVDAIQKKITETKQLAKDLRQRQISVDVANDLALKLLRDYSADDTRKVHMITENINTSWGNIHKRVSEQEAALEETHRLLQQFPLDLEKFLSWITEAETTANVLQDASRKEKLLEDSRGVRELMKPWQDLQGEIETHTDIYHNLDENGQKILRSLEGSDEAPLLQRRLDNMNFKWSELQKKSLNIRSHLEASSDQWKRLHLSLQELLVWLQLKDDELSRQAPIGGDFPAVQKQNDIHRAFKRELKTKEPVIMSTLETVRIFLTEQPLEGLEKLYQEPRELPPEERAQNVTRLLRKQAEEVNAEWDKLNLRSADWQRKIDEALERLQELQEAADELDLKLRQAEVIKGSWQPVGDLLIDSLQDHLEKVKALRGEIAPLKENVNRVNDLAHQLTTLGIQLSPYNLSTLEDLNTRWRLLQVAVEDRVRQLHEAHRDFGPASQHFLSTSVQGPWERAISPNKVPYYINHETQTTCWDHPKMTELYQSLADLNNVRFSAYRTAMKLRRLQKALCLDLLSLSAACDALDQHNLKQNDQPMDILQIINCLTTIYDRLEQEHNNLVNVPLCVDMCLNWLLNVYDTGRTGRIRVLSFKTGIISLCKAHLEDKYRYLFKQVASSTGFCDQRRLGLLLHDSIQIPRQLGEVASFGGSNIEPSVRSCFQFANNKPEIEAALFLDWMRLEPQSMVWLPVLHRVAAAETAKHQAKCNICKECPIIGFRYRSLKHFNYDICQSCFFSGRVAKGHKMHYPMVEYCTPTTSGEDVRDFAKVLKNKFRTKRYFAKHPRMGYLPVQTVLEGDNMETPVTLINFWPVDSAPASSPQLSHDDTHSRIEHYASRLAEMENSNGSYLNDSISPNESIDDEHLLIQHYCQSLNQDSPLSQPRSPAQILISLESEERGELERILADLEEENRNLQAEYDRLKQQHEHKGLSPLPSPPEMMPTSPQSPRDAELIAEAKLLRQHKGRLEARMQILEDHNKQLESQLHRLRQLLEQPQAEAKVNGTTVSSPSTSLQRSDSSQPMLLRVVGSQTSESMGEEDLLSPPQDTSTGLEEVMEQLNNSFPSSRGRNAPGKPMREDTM
UniProt Q64727: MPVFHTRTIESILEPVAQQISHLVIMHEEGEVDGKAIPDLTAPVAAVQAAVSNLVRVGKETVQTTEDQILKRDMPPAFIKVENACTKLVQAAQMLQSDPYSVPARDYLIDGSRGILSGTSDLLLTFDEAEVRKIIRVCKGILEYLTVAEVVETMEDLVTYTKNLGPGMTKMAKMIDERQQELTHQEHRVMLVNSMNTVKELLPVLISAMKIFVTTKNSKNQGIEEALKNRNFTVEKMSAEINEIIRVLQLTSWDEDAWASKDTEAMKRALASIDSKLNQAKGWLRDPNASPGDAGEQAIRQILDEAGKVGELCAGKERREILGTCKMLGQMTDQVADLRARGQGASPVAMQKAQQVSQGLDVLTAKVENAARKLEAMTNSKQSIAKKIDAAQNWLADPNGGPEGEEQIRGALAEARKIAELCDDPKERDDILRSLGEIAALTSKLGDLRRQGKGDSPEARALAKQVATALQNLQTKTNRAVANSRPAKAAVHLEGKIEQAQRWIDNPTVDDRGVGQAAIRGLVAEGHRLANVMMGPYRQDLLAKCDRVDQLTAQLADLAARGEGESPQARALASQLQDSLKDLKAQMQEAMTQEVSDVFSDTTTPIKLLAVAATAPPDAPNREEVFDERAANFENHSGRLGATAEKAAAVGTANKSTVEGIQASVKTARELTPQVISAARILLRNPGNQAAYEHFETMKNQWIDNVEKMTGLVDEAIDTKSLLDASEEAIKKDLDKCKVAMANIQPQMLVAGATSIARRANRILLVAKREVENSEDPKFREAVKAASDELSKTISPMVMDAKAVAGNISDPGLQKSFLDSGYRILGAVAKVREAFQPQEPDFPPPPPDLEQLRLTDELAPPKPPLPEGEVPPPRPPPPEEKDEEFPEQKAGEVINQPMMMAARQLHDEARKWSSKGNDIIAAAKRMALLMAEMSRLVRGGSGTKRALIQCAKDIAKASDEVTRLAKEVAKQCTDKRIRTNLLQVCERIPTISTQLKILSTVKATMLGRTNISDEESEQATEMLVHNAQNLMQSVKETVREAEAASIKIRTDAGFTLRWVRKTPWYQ

The labels stand for the following.
T1: 6His-plakoglobin (UniProt P14923)
T1 sequence: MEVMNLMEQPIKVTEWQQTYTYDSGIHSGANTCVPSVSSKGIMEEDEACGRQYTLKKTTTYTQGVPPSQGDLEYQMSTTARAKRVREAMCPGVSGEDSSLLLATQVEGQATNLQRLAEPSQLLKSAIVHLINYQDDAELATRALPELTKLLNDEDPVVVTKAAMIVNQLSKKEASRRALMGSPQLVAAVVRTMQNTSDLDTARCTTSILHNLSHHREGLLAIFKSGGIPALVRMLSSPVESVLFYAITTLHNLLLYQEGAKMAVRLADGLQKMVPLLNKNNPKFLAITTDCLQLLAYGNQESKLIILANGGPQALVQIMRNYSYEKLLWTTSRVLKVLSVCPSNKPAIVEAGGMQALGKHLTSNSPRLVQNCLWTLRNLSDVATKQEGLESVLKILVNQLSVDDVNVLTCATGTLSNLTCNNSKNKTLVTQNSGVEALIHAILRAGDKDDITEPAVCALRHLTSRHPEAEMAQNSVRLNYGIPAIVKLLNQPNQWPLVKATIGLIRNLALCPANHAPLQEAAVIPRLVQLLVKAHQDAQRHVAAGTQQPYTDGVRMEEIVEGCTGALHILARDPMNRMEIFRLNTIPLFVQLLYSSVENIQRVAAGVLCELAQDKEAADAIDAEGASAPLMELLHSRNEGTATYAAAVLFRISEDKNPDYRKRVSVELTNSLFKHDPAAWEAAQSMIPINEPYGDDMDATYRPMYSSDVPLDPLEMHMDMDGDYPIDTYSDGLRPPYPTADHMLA

B1: β-sarcoglycan (protein, UniProt P82349 1-320)
chain: MAAAAAAAAATEQQGSNGPVKKSMREKAVERRNVNKEHNSNFKAGYIPIDEDRLHKTGLRGRKGNLAICVIVLLFILAVINLLITLVIWAVIRIGPNGCDSMEFHESGLLRFKQVSDMGVIHPLYKSTVGGRRNENLVITGNNQPIVFQQGTTKLSVEKNKTSITSDIGMQFFDPRTHNILFSTDYETHEFHLPSGVKSLNVQKASTERITSNATSDLNIKVDGRAIVRGNEGVFIMGKTIEFHMGGDVELKAENSIILNGTVMVSPTRLPSSSSGDQSGSGDWVRYKLCMCADGTLFKVQVTGHNMGCQVSDNPCGNTH
B2: γ-sarcoglycan (protein, UniProt P82348 1-291)
chain: MVREQYTTVTEGTHIERPENQHIYKIGIYGWRKRCLYLFVLLLLAILVVNLALTIWILKVMWFSPIGMGHLHVTADGLRLEGESEFLFPLYAKEIRSRVDSSLLLQSTQNVTVSARNSEGEVTGRVKVGAQMVEVQSQHFQINSEDGKPLFSAEEQDVVVGTGRLRVTGPEGALFEHSVETPLVRADPFQDLRLESPTRSLSMDAPRGVHVKANAGKLEALSQMDIILQSSEGVLVLDAETVGLTKLKQGTQGPAGSSNGFYEICACPDGKLYLSMAGEVTTCEEHSHVCL
B3: α-1-syntrophin (protein, UniProt Q61234 1-503)
chain: MASGRRAPRTGLLELRCGAGSGAGGERWQRVLLSLAEDALTVSPADGEPGPEPEPAQLNGAAEPGAAPPQLPEALLLQRRRVTVRKADAGGLGISIKGGRENKMPILISKIFKGLAADQTEALFVGDAILSVNGEDLSSATHDEAVQALKKTGKEVVLEVKYMKEVSPYFKNSAGGTSVGWDSPPASPLQRQPSSPGPQPRNLSEAKHVSLKMAYVSRRCTPTDPEPRYLEICAADGQDAVFLRAKDEASARSWAGAIQAQIGTFIPWVKDELQALLTATGTAGSQDIKQIGWLTEQLPSGGTAPTLALLTEKELLFYCSLPQSREALSRPTRTAPLIATSSAHRLVHSGPSKGSVPYDAELSFALRTGTRHGVDTHLFSVESPQELAAWTRQLVDGCHRAAEGIQEVSTACTWNGRPCSLSVHIDKGFTLWAAEPGAARAMLLRQPFEKLQMSSDDGTSLLFLDFGGAEGEIQLDLHSCPKTMVFIIHSFLSAKVTRLGLLA
B4: caveolin-3 (protein, UniProt P51637 1-151)
chain: MMTEEHTDLEARIIKDIHCKEIDLVNRDPKNINEDIVKVDFEDVIAEPEGTYSFDGVWKVSFTTFTVSKYWCYRLLSTLLGVPLALLWGFLFACISFCHIWAVVPCIKSYLIEIQCISHIYSLCIRTFCNPLFAALGQVCSNIKVVLRREG
B5: β-dystroglycan (protein, UniProt Q62165 652-893)
chain: SIVVEWTNNTLPLEPCPKEQIIGLSRRIADENGKPRPAFSNALEPDFKALSIAVTGSGSCRHLQFIPVAPPSPGSSAAPATEVPDRDPEKSSEDDVYLHTVIPAVVVAAILLIAGIIAMICYRKKRKGKLTLEDQATFIKKGVPIIFADELDDSKPPPSSSMPLILQEEKAPLPPPEYPNQSMPETTPLNQDTVGEYTPLRDEDPNAPPYQPPPPFTAPMEGKGSRPKNMTPYRSPPPYVPP
modifications: glycosylated form detected (glycosylated β-dystroglycan)

In the experiment the target is T1, 6His-plakoglobin. As to the kind of experiment: affinity purification with mass spectrometry; 6His-plakoglobin electroporated into mouse TA muscle, whole-cell extracts on Ni beads, histidine gradient, fraction #2 analysed by mass spectrometry.
For the molecule “catalytic subunit of PI3K, gamma (from UniProt Q9JHG7 1-1102) (enzyme)”, the binding result was “binds”.
Turning to “catalytic subunit of PI3K, type 3 (from UniProt Q6PF93 1-887) (enzyme)”, the binding result is listed as “binds”.
With caveolin-1 (from UniProt P49817 1-178), the binding entry is given as “binds”.
To dystrophin (from UniProt P11531 1-3678) belongs “binds”.
To “insulin receptor substrate 1 (from UniProt P35569 1-1233)” belongs “binds”.
To “insulin-like growth factor 2 receptor (from UniProt Q07113 36-2483)” belongs “binds”; to “insulin-like growth factor-binding protein”, “binds”.
In the case of p85 regulatory subunit of PI3K, the binding entry is recorded as “binds”.
Next, vinculin (from UniProt Q64727 1-1066): “binds”.
Next, β-syntrophin: “binds”.
Next, B1: “binds”; B2: “binds”.
Turning to B3, the binding entry is on record as “binds”.
Next, B4: “binds”.
Next, B5: “binds”.

(Values after paper PMC7070008.)
